Test results: article PMC6350196 (Drug Metabolism Letters, 2018)

Experiment: QSRR estimation of CHIn+Fbt and CHIbt from LC retention times
Assay type: physicochemical
Conditions: predicted (QSRR, equation 13); parent-drug label = average for that drug

## CC(C)c1c(C(=O)Nc2ccccc2)c(-c2ccccc2)c(-c2ccc(F)cc2)n1CC[C@@H](O)C[C@@H](O)CC(=O)O [atorvastatin]
  CHIbt, lactonization (acid dehydration to lactone): 6.2
